# Data taken from patent US20220145264A1, “CULTURE MEDIUM FOR MAMMALIAN EXPANDED POTENTIAL STEM CELLS, COMPOSITION, AND METHODS THEREOF” (THE UNIVERSITY OF HONG KONG, priority 2019, published 2022).
# At least one structure is not confirmed: it was looked up by name or label, or the drawing left a doubt.
# Experiments:
# pEPSCs^Emb = assay: Requirement of individual culture components for pEPSCs (RT-qPCR, AP+ colony formation); type: cell-based; conditions: porcine EPSCs
# Protocol: (§1) Porcine and human EPSC cultures were routinely maintained on STO feeders. STO feeder plates were prepared 3-4 days before passaging by thawing and plating the mitomycin C inactivated STO cells on 0.1% gelatinised plates at the density of ˜1.1×10^4 cells/cm^2. Porcine/human EPSC cells were maintained on STO feeder layers and enzymatically passaged every 3-5 days by a brief PBS wash followed by treatment for 3-5 minutes with 0.25% trypsin/EDTA (Gibco, Cat. No. 25500-054). The cells were dissociated and centrifuged (300 g×5 minutes) in M10 medium. M10: knockout DMEM (Gibco, Cat. No. 10829-018), 10% FBS (Gibco, Cat. No. 10270), 1× Glutamine Penicillin-Streptomycin (Thermo Fisher Scientific, Cat. No. 11140050) and 1×NEAA (Thermo Fisher Scientific, Cat. No. 10378-016). After removing supernatant, the porcine/human EPSCs were re-suspended and seeded in pEPSCM/hEPSCM supplemented with 5 μM ROCK inhibitor Y-27632 (Tocris, Cat. No. 1254). […]
# (§2) Total RNA was isolated using an RNeasy Mini Kit (Qiagen, Cat. No. 74106) for cultured cells or RNeasy Micro Kit (Qiagen, Cat. No. 74034) for sorted NANOS3-mCherry^+ cells. RNA was subsequently quantified and treated with gDNA WipeOut to remove genomic DNA. Complementary DNA (cDNA) was prepared using a QuantiTect Reverse Transcription Kit (Qiagen, Cat. No. 205311). […] Gene expression was determined relative to GAPDH using the […]. […]
# H1-EPSCs = assay: Requirement of individual culture components for hEPSCs (RT-qPCR, AP+ colony formation); type: cell-based; conditions: human EPSCs
# Protocol: as §1, §2
Structure (SMILES),need for routine maintenance of EPSCs (pEPSCs^Emb),need for routine maintenance of EPSCs (H1-EPSCs)
CN(C)CCOc1ccc(-c2nc(-c3ccncc3)c(-c3ccc4c(c3)CC/C4=N\O)[nH]2)cc1 [SB 590885],not essential,not essential
Oc1c2ccccc2c2c3c(cccc13)N=N2 [SP600125],not essential,not essential
